# Test results: PubChem BioAssay AID1508600 (Functional Genomics Laboratory (NCATS/FGL), 2020)
# Hit rate of the full screen: of about 53,000 sequences, about 3,700 (7%) were called active.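 Rule for the calls: active = gene knockdowns whose robust z-score for IL-1 alpha signal is at least 2 or at most -2, so actives lie on both sides; inactive = the rest.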 Some of the results follow.
# Assay: Components of the Cytosolic LPS Sensing Pathway: Gene Identification via Genome-wide siRNA Screen;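 note: robust z of the log signal after scaling to non-targeting control siRNA wells of the plate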
# Settings: RAW264.7 macrophages, IL-1a HTRF, actives lie on both sides, screened at 100 nM (by protocol), cells primed 5 h with Pam3CSK4 first
# Procedure, shortened: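 Read-out: IL-1a HTRF on supernatant, divided by plate negative-control median ×100, log-transformed and converted to robust z-score. Cells were RAW264.7 given 100 nM siRNA, Pam3CSK4-primed 5 hours, then LipidA-transfected 24 hour.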
row,Sequence,z-score
1,GGGAUUUAACAACAUGUAATT against Slc20a1,inactive: 1.54
2,GGUGAACAUGCGCAUCAAATT against Ugt1a5,inactive: 0.949
3,GGCAGAGAGAUGUUACAAGTT against Ccl8,inactive: 0.408
4,CGUAUUGUUUCCUAGCACATT against Arhgef38,active: 2.08
5,GGGAUUAAGUCACCUCUGUTT against Rab15,inactive: -0.143
6,CCCUGAACGAAUAAUCGGCTT against Cbx3,inactive: 0.512
7,GCCACUAAAUCCUGUUUCCTT against Ydjc,inactive: -0.0858
8,GGCUCUAUUCAAUGCUAUUTT against Gm5094,inactive: 0.895
9,CCAUUAUUUUACGAAACCUTT against Rbm10,inactive: -0.614
10,GGAACACACAGAGGUUUAUTT against Hacd1,inactive: 1.87
11,GGGUGGUCAGUGGUCAAAATT against Chodl,inactive: 0.319
12,GGCCAAUGAAGACCCAGAATT against Pomgnt1,inactive: -0.00901
13,GCUGAUCCUCUCCCUUCAUTT against Tas2r131,inactive: -0.463
14,CCGAUUUUGCACCUCAGCUTT against Bphl,inactive: -1.73
15,GGUGUUUGAUCUUUUAAAGTT against Fanci,inactive: -0.715
16,GCUACUAAACAGGGUGUGATT against Gpsm3,active: -2.42
17,GGAUAUACUGUGGAGGCUUTT against Gzmd,inactive: 1.2
18,CCUCUAUGCGUCCAAUAUUTT against Kdm6b,inactive: 0.07
19,GGAUAUUUUUUGGUGCUGATT against Ankrd49,inactive: -0.224
20,GCUAAGUCGGAGCAGUUUUTT against Clba1,active: 2.07
21,CCGAGAAACGAAUAAGUCATT against Rbmx,inactive: 0.498
22,GGCCUUAAUUAGCCUCUCUTT against Gm5111,inactive: 1.85

row,Sequence,z-score
1,GGUAACGAUGAGGUCAUCGTT against Atp6ap1,inactive: -0.378
2,GGAACUCAGUAACACCCAGTT against Fcamr,inactive: -0.47
3,GGCAAGAGCAAGAAAUGGCTT against Grk6,inactive: -1.11
4,GGAACAAAUCCUGGAACUGTT against Zfp449,inactive: 1.15
5,CCACUUUCCCAUUCAGGAATT against Gpr84,inactive: 1.73
6,CCUAUAAUGCUGAAAUGGCTT against Olfr702,inactive: 0.369
7,GGUAGUUCAGAUCUGAUUUTT against Svep1,inactive: 0.599
8,GCAGUUGGUUCAAGUCAACTT against Psat1,inactive: 0.886
9,GGCAACUUAAGUUUUACAGTT against Tmem170,inactive: -0.898
10,CCAAAUGAGGCUACCACAATT against Socs7,inactive: -0.0785
11,GAUUCUUACUUUGGUCUACTT against Olfr9,inactive: 0.62
12,GCGGUGAUUUCGUCUAUUUTT against Atg14,inactive: -0.2
13,GGCCGUGCCAUUCAAAGACTT against Aoah,inactive: -0.109
14,GGCAGAUAGUACUAAUGAATT against Mucl1,inactive: -0.000457
15,GGCAAUCGAGAUUAUGCCATT against Itgav,inactive: -0.998
16,GGGCAAGAAGAGAAACUAATT against Krtcap2,inactive: 0.319
17,GGUUUUUUUCCUGUGAAUGTT against Ipcef1,inactive: 0.381
18,GGCACCACUGAUUUGAAUCTT against Arl15,inactive: 0.131
19,CGAUGAGGGCAGAUACCUATT against Pthlh,inactive: 1.22
20,CCGUUCUCAGCAGUUACUGTT against Pbld1,inactive: -0.216
21,GGAGCUUUCUCAGAGGUGUTT against Camk1g,inactive: -1.47
22,GGCCAUCUGUAAGAGAAGCTT against Ankrd61,inactive: 0.657

row,Sequence,z-score
1,GGUGAAGACCAUCUUGACCTT against Clcnkb,inactive: -1.74
2,GGAGAAAAUCCAUCUUGAATT against Ces1f,inactive: -1.28
3,GCAACAAGUCUGGAGACAATT against Pebp1,inactive: -0.595
4,GAACAUCAUCUCACACUCATT against Olfr874,inactive: -0.000467
5,GGAGCAAGUAAAAGUAUCUTT against Fpr-rs6,inactive: -0.162
6,CGGUAAAGUAGGGAAGAUGTT against Duox2,inactive: -0.168
7,GCAAGAAAAACAUGAACUGTT against Klra17,inactive: 1.26
8,CCAAAUUUCAUAGUUUGGGTT against Gripap1,inactive: -0.04
9,GGAGAAAGUGAUUGACAUATT against Lpin2,inactive: -0.0579
10,GCACGAGAAAAAUACUACGTT against Slc18a2,inactive: 0.612
11,GCUCUGUUUUUAACCAUCCTT against Ccnt2,inactive: 0.227
12,GGUAGUGCAACCAUCACGUTT against Pcdhb14,inactive: -0.931
13,GGAGAAUCCAUUCAACUCUTT against Aoah,inactive: -0.156
14,GCAGAGCUUCUGCUCUUCUTT against Olfr527,inactive: -0.874
15,GGUACAGAAACAGUUAGUUTT against Olfr432,inactive: 0.328
16,GGGUGCCUAGCAGAUGAACTT against Sp110,inactive: -0.912
17,GGUUUUUAAGGGAAGGCCCTT against Ntmt1,inactive: 0.284
18,GGACCAUGAAGAGGAUCCUTT against Gjc1,inactive: -0.406
19,GCCCUAUCUCAAGUCACUATT against Entpd3,inactive: 0.269
20,GCACAAGCGAUGGGUUAACTT against Fkbp1a,inactive: -0.708
21,GCUGGAUCCAUCUAAUUGCTT against Klhl12,inactive: 0.0684
22,GGAAUAACCCAGAGAACUATT against 9430097D07Rik,inactive: 0.24

# Some values from the list:
# Value of GGAUAUACUGUGGAGGCUUTT against Gzmd under z-score: inactive: 1.2
# Value of GGGCAAGAAGAGAAACUAATT against Krtcap2 under z-score: inactive: 0.319

# Further results:

row,Sequence,z-score
1,GGGUGGUUAGAACAGCCACTT against Prss16,inactive: -1.21
2,CGACUCCAAGUGGUUUAAATT against Sema6b,inactive: 1.34
3,GGAUGACCAUGAAAGCUGUTT against Vps13b,inactive: 1.87
4,GGUGAGAAAUCGAAGCCCUTT against H1f8,inactive: -1.12
5,CCUCUGAACUCCAACCGAATT against Thegl,inactive: 0.415
6,GCACCUAAAGUACGUUUCATT against Ube2n,inactive: -0.163
7,GCCAGUACACUCCACCUGUTT against Cep55,inactive: -1.83
8,GGUAGUAGAGUCAAAAAAGTT against Top1,inactive: 0.805
9,GGUGUAAAGUAAUCAAGGCTT against Dbx2,inactive: 0.453
10,GGAACAGAACCUCAGACGATT against Itih5,inactive: 0.782
11,GCAACAACCUGUGCCUACATT against Lgals1,inactive: 0.573
12,GGUUCUUGACCCUUUCACATT against Atcay,inactive: -1.11
13,GCUGUGAAAACGCAGUUACTT against Ccser2,inactive: 1.77
14,GGUACACUGGUAUACGUAUTT against Samd9l,inactive: -1.45
15,GACUCCCACUUACACUCUCTT against Olfr1312,inactive: 0.284
16,CGGAACCAUACUUUCCUUATT against Olfr1162,inactive: 0.205
17,GCAGAGAUAAAUUGGAAAGTT against Art2b,inactive: 0.292
18,GGUUACAUGGAUUGAAGCUTT against Scrn3,inactive: 0.183
19,GCCAAUGAUACCUUUGACATT against Mcoln1,inactive: -0.385
20,GCCCUUUUCAAGUGAUCAGTT against Pfkfb1,inactive: -1.33
21,CGAGAUGGGAGAUUGAAAUTT against Ms4a8a,inactive: 0.47
22,GCCAAUUGGACCUUAGAAATT against Nup107,active: -2.58

row,Sequence,z-score
1,GGGUAUAGGGAUGGUGAAUTT against Ppil1,inactive: 0.834
2,GCUGGUACAGCGUAUACCATT against Cep170b,inactive: -1.03
3,CCUGAUGAUUCAACAAAAGTT against Pum2,inactive: 0.106
4,GGUCCUGACUGGAUACCUGTT against Ece1,active: 4.19
5,GGAGGACCUAGAUGUCAAATT against Prpf38b,inactive: 1.19
6,GCCAUGAAUCCUAUCCGCATT against Ephb3,inactive: -0.967
7,GGAGAAAGGAUAUGAACUUTT against Rbm47,inactive: 0.322
8,CCUCUGUGCUCGUCUUUUUTT against Arhgap6,inactive: -1.15
9,GCGGACAGUUUGGCACAAUTT against Becn1,inactive: 0.537
10,GGUGUAUCAAGAAACUAACTT against Ago3,inactive: 0.55
11,GGUGAAGAAGGUGUUCCAUTT against Pvalb,inactive: 1.48
12,GGGCGACAUCUUUAGCAAATT against Sh3bp4,inactive: -0.0472
13,GACCAUCAGUGAUUGAGGATT against Speer4b,inactive: -1.67
14,CGACCAUUAUACAACAGAUTT against F630111L10Rik,inactive: 0.294
15,GGAACAAAGAUGUCAAGAUTT against Olfr904,inactive: -1.84
16,GGAAACAGUCAUGCAGCAATT against Plvap,inactive: -0.348
17,GGAGUCAUGUCUGUUGGCATT against Naa16,inactive: -1.6
18,GGCAAAGGCCUAUGAACUGTT against Phka1,inactive: 0.484
19,GGAGACGGAGCUGUUAGAUTT against Plcb1,inactive: -0.104

# Already shown: entries from further up.
row,Sequence,z-score
3,CCUGAUGAUUCAACAAAAGTT against Pum2,inactive: 0.106
4,GGUCCUGACUGGAUACCUGTT against Ece1,active: 4.19
5,GGAGGACCUAGAUGUCAAATT against Prpf38b,inactive: 1.19
